{"sequences": {"note": "The chains behind the UniProt entries cited, without tags or fusion partners. Where a name states a change or a piece, a line headed by the entry shows the natural chain unless it says otherwise.", "UniProt Q8C0Q2": "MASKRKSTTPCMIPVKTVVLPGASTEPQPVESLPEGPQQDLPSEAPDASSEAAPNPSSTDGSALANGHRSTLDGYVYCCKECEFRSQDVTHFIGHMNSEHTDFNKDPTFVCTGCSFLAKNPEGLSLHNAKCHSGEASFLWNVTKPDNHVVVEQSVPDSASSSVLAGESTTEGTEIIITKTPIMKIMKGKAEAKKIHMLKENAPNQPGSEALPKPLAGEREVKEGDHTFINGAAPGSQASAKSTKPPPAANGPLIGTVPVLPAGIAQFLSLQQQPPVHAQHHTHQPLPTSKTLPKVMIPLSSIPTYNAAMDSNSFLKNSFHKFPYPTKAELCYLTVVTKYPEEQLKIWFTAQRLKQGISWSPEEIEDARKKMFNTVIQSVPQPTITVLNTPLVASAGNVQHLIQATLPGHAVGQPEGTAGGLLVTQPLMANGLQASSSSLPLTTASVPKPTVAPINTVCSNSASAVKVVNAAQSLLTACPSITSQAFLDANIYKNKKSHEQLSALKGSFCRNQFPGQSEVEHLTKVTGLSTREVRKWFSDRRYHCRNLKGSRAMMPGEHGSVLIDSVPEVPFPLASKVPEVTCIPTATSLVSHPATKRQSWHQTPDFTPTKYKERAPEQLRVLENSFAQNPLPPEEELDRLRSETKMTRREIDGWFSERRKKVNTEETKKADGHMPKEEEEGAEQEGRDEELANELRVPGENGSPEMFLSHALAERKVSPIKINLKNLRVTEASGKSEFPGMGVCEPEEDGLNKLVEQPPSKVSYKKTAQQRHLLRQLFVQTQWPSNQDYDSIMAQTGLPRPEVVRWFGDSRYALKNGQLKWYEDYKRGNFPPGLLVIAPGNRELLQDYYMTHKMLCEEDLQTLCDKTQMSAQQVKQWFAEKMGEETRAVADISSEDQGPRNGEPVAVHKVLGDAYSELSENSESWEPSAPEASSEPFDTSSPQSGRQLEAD", "UniProt Q8C0D7, whole entry": "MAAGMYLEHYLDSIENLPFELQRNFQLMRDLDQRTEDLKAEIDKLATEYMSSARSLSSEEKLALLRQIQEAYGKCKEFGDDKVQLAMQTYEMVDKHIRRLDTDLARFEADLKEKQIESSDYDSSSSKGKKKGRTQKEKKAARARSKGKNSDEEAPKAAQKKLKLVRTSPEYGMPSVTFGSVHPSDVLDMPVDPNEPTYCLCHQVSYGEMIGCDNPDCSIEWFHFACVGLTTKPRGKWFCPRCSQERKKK", "UniProt Q8C9X6, whole entry": "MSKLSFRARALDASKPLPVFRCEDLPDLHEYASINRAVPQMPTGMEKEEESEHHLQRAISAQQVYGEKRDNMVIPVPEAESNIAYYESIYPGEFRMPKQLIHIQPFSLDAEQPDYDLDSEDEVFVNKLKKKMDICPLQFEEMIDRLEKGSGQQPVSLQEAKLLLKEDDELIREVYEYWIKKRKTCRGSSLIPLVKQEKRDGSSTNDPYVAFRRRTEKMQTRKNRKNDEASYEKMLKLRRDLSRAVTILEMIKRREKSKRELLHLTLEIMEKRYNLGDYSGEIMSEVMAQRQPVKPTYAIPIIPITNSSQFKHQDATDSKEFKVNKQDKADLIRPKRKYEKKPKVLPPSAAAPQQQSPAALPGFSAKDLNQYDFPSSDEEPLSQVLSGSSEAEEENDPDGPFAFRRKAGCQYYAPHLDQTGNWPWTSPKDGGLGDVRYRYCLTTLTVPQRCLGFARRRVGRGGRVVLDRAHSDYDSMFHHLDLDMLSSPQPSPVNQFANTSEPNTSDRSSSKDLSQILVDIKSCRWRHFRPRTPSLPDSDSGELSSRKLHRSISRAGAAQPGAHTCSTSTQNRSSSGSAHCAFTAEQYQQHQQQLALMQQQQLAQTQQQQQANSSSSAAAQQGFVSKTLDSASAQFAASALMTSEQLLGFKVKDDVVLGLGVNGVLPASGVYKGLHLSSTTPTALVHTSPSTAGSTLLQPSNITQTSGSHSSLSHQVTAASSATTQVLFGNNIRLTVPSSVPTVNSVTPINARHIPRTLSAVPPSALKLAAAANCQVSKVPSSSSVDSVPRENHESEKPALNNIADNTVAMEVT", "UniProt Q8BWG9, whole entry": "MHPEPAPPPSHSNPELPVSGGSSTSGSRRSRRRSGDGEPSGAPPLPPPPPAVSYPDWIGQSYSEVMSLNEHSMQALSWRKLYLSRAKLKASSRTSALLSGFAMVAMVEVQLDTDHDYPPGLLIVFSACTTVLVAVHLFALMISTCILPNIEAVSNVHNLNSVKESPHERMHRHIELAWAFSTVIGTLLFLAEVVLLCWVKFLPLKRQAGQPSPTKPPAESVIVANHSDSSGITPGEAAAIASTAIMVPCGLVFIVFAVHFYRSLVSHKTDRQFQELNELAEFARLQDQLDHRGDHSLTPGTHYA", "UniProt Q8C1Z8": "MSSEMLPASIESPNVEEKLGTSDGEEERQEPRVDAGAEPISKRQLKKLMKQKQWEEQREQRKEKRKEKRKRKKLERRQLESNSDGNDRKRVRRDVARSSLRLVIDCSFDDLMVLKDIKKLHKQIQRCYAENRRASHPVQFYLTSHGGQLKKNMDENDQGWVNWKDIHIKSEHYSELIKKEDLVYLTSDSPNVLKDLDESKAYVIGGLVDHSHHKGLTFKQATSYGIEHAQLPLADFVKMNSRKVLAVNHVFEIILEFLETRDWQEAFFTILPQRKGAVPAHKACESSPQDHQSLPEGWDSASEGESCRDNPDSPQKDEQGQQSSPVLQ", "UniProt Q8BX09, whole entry": "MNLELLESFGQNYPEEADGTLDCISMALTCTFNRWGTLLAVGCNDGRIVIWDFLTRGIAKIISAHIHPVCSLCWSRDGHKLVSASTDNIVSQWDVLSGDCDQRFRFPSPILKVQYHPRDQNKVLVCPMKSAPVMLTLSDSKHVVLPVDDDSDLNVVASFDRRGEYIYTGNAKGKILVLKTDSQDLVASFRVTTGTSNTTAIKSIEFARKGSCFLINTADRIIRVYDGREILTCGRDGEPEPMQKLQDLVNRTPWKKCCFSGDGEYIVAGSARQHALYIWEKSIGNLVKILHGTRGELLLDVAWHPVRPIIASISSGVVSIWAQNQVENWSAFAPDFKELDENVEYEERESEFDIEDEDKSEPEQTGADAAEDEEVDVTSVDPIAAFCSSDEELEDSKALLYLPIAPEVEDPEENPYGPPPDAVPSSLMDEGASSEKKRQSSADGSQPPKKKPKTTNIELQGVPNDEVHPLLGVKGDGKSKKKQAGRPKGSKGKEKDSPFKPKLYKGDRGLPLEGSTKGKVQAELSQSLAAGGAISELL", "UniProt Q8C6E0": "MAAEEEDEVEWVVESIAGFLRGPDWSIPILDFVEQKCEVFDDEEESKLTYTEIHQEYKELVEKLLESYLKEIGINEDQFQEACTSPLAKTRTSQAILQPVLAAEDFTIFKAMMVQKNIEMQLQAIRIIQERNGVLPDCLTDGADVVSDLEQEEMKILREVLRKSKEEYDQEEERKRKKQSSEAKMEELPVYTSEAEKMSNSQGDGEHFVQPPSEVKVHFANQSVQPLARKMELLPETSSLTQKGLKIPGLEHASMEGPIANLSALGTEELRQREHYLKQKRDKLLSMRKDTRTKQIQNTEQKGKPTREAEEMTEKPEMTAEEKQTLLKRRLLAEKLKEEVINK", "UniProt Q8C4S8": "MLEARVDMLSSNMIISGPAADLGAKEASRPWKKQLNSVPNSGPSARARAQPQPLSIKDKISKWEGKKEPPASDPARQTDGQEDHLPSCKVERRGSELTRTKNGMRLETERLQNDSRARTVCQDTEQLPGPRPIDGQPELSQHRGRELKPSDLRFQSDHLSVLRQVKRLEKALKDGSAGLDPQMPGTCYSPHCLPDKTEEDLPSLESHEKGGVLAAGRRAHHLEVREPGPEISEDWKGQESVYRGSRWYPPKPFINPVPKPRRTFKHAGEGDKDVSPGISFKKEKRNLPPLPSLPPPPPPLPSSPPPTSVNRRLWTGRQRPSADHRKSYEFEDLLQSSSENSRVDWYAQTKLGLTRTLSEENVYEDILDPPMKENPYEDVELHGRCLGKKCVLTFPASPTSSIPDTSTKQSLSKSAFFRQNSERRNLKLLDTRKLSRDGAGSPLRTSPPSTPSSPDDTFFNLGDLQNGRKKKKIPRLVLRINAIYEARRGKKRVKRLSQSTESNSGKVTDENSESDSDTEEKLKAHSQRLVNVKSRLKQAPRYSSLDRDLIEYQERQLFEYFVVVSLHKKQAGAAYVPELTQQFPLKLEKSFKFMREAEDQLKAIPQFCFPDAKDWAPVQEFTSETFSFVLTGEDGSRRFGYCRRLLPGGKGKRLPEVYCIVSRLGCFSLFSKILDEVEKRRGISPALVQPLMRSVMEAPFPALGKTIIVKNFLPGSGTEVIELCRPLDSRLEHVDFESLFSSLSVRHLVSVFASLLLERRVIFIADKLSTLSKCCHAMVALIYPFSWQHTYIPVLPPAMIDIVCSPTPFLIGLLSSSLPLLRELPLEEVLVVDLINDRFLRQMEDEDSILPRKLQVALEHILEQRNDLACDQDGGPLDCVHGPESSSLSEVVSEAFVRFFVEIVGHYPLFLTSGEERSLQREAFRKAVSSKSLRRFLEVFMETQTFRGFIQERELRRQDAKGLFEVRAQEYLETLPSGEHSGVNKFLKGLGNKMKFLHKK", "UniProt Q8BXK4": "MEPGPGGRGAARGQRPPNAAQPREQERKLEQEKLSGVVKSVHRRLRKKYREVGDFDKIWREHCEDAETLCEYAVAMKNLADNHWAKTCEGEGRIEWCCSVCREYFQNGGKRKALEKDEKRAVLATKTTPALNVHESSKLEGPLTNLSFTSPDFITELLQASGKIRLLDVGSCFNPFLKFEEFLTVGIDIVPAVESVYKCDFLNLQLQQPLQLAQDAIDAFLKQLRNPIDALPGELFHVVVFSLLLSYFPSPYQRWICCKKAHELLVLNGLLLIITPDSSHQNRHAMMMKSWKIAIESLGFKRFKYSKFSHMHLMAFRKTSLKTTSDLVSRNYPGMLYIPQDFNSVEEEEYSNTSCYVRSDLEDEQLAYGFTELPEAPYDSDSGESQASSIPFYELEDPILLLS", "UniProt Q8BW10": "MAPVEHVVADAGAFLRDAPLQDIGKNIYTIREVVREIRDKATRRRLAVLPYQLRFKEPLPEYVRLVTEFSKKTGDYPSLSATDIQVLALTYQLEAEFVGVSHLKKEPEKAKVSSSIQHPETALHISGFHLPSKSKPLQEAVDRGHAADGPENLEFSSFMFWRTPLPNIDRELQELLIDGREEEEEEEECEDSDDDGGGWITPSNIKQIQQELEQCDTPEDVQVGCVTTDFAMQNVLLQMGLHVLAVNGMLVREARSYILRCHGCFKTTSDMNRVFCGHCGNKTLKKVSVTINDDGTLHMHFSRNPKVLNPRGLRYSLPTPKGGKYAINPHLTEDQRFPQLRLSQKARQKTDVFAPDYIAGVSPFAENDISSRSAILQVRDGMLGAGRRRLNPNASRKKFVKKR", "UniProt Q8BWF2": "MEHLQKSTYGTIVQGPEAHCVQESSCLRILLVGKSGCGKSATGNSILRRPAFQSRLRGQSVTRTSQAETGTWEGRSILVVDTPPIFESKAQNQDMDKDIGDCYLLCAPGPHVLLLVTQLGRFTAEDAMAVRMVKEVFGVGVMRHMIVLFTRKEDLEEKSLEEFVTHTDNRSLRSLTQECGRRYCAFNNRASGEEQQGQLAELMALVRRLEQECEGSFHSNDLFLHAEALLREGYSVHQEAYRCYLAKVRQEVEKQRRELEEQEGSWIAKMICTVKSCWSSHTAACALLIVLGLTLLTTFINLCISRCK", "UniProt Q8BZ03": "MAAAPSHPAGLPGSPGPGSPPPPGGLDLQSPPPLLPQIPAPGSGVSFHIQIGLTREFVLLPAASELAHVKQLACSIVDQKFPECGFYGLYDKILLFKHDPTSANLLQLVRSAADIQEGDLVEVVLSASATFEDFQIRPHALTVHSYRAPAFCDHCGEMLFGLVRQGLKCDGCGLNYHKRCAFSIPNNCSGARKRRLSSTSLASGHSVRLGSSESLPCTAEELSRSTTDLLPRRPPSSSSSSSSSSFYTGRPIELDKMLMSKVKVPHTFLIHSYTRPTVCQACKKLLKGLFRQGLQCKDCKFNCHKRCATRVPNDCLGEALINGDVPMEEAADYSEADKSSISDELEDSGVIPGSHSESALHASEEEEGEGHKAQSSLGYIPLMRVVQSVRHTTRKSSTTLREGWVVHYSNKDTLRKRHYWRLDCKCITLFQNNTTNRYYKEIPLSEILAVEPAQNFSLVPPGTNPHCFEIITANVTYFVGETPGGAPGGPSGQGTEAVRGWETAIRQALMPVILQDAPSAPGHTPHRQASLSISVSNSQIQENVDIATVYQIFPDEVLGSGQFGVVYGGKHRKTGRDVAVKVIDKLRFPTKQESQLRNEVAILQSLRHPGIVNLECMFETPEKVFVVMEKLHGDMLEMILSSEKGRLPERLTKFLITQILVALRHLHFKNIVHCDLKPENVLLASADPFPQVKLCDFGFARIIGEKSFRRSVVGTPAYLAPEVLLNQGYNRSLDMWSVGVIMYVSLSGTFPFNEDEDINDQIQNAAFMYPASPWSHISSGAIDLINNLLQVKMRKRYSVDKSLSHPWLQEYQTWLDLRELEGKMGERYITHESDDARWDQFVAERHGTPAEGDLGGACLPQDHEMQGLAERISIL"}, "source": "the supplement of paper PMC12819154", "about": "“High-throughput peptide-centric local stability assay extends protein–ligand identification to membrane proteins, tissues and bacteria” (Nature Structural & Molecular Biology, 2025)", "note": "The list shows a part of the results. Small differences around the control level are noise.", "data": [{"compound": "CN[C@@H]1C[C@H]2O[C@@](C)([C@@H]1OC)n1c3ccccc3c3c4c(c5c6ccccc6n2c5c31)C(=O)NC4 [staurosporine]", "assay": "log2 fold change of tryptic peptide abundance, ligand vs vehicle (limited proteolysis) (log2 ratio); higher = more trypsin-susceptible (destabilized)", "conditions": "ligand concentration: 20 uM; sample: mouse liver crude lysate; replicate design: treated separately", "values": [{"target": "UniProt Q8C6M1 (peptide sequence: EWEAFVK, peptide start residue: 829)", "log2 fold change": -0.438}, {"target": "UniProt Q8BWD8 (peptide sequence: VFLLLQK, peptide start residue: 308)", "log2 fold change": -0.73}, {"target": "UniProt Q8C0Q2 (peptide sequence: KSTTPCMIPVK, peptide start residue: 6)", "log2 fold change": 0.209}, {"target": "UniProt Q8C767 (peptide sequence: VQNLAFEK, peptide start residue: 150)", "log2 fold change": -0.472}, {"target": "UniProt Q8C5H8 (peptide sequence: QGNLTLPLNKDLVEK, peptide start residue: 351)", "log2 fold change": -0.19}, {"target": "UniProt Q8C0D7 (peptide sequence: RLDTDLAR, peptide start residue: 99)", "log2 fold change": -0.384}, {"target": "UniProt Q8C0G2 (peptide sequence: EKEEELR, peptide start residue: 461)", "log2 fold change": -0.00362}, {"target": "UniProt Q8C9X6 (peptide sequence: ALDASKPLPVFR, peptide start residue: 10)", "log2 fold change": 0.787}, {"target": "UniProt Q8BWG9 (peptide sequence: GDHSLTPGTHYA, peptide start residue: 293)", "log2 fold change": -0.158}, {"target": "UniProt Q8C1Z8 (peptide sequence: VDAGAEPISK, peptide start residue: 33)", "log2 fold change": 0.318}, {"target": "UniProt Q8BX09 (peptide sequence: GLPLEGSTK, peptide start residue: 509)", "log2 fold change": 0.108}, {"target": "UniProt Q8C167 (peptide sequence: LFEETGHEDPITK, peptide start residue: 425)", "log2 fold change": -0.255}, {"target": "UniProt Q8C6E0 (peptide sequence: VHFANQSVQPLAR, peptide start residue: 217)", "log2 fold change": -0.129}, {"target": "UniProt Q8C4S8 (peptide sequence: HAGEGDKDVSPGISFK, peptide start residue: 266)", "log2 fold change": 0.753}, {"target": "UniProt Q8BXK4 (peptide sequence: KYREVGDFDK, peptide start residue: 48)", "log2 fold change": 0.731}, {"target": "UniProt Q8BVI5 (peptide sequence: QLLAEQVSSHTTSSPLHSR, peptide start residue: 22)", "log2 fold change": 0.19}, {"target": "UniProt Q8C0Y0 (peptide sequence: YGTLDKCASK, peptide start residue: 787)", "log2 fold change": -0.563}, {"target": "UniProt Q8C080 (peptide sequence: TKFTGTDSSIEYSARPR, peptide start residue: 75)", "log2 fold change": 0.214}, {"target": "UniProt Q8C170 (peptide sequence: SLEDRPQFISR, peptide start residue: 2474)", "log2 fold change": -0.313}, {"target": "UniProt Q8BW10 (peptide sequence: YAINPHLTEDQR, peptide start residue: 325)", "log2 fold change": -0.125}, {"target": "UniProt Q8BWF2 (peptide sequence: KEDLEEK, peptide start residue: 152)", "log2 fold change": -0.0337}, {"target": "UniProt Q8C079 (peptide sequence: DIEMFLESSR, peptide start residue: 432)", "log2 fold change": 0.246}, {"target": "UniProt Q8BZN6 (peptide sequence: HLALAVLK, peptide start residue: 1173)", "log2 fold change": -0.371}, {"target": "UniProt Q8C7D2 (peptide sequence: FKVLELR, peptide start residue: 168)", "log2 fold change": 0.0484}, {"target": "UniProt Q8BWM0 (peptide sequence: AIEEAPSVHHVNPSCKD, peptide start residue: 368)", "log2 fold change": 0.31}, {"target": "UniProt Q8BWR4 (peptide sequence: EFTNLSGIR, peptide start residue: 36)", "log2 fold change": 0.27}, {"target": "UniProt Q8C547 (peptide sequence: TGHSLALGCLHR, peptide start residue: 910)", "log2 fold change": 0.698}, {"target": "UniProt Q8C5S7 (peptide sequence: AADEEERR, peptide start residue: 435)", "log2 fold change": -0.165}, {"target": "UniProt Q8C569 (peptide sequence: EGQLNGSSAAHGEIR, peptide start residue: 333)", "log2 fold change": 0.373}, {"target": "UniProt Q8BYJ6 (peptide sequence: AHTFSHPPSSSR, peptide start residue: 647)", "log2 fold change": -0.12}, {"target": "UniProt Q8BZ03 (peptide sequence: YITHESDDAR, peptide start residue: 828)", "log2 fold change": -0.402}]}]}
